At least one structure is not confirmed: it was looked up by name or label, or the drawing left a doubt.
Tested on: mitochondrial HMG-CoA synthase (mHS)
Test: mHS mRNA expression in L6 myotubes (RT-PCR, RTQ-PCR)
Assay type: cell-based
Conditions: rat L6 myotubes incubated 24 hours; oleate at 500 μM; vs control without fatty acid

CCCCCCCC/C=C\CCCCCCCC(=O)O [oleate]
mHS mRNA expression: increased dramatically

— patent US20070110716A1, “Relationship of a specific metabolite to insulin resistance” (priority 2003, published 2007)
